# PubChem BioAssay AID1259308 | NCATS – 2017
# Test: 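Candidate targets for better recombinant protein yield in mammalian cells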 (primary screen)
# Cells: human HEK293 embryonic kidney cells stably expressing firefly luciferase (HEK-CMV-Luc2-Hygro)
# Knock-down reagent: single siRNA against human genes, 0.8 pmol siRNA per well
# Duration: 72 h
# Detection: 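Luciferase light (ONE-Glo) measured on one replicate plate set and viability (CellTiter-Glo) on the other, scaled to a negative control siRNA, with robust z-scores and luciferase per cell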
# Reading the numbers: total luciferase, z-score: higher = more reporter protein produced
# Rule for the call: 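An siRNA counts as active if its total luciferase robust z-score exceeds 3; genes with two or more such siRNAs out of three were retested with fresh siRNAs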
# Calls: active = raised luciferase; inactive = no rise
# Here is a random part of about 59,000 reagents tested. About 1,510 of all reagents (2.6%) were called active. 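Calls use total luciferase alone and ignore viability, so some active siRNAs may act by altering cell number.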 Entries without a mark were called inactive. Reagents against one gene are numbered here. Not all columns of the deposit are shown.
gene,siRNA no.,"total luciferase, z-score"
ANKAR,1,0.386
ANKAR,2,1.02
ANKAR,3,-1.2
COL7A1,1,1.53
COL7A1,2,-1.35
COL7A1,3,0.518
ZNF138,1,0.489
ZNF138,2,0.381
ZNF138,3,-1.1
CHRNA9,1,-0.97
CHRNA9,2,0.0232
CHRNA9,3,0.128
FLACC1,1,-0.263
FLACC1,2,-0.248
FLACC1,3,-0.298
TGFBRAP1,1,-0.628
TGFBRAP1,2,-0.34
TGFBRAP1,3,-0.203
SLC38A7,1,-0.299
SLC38A7,2,1.39
SLC38A7,3,-0.121
NIF3L1,1,0.292
NIF3L1,2,1.62
NIF3L1,3,-0.17
MRS2,1,-0.0209
MRS2,2,0.00608
MRS2,3,0.896
FANCF,1,-0.00332
FANCF,2,-1.17
FANCF,3,0.765
ITGA1,1,0.153
ITGA1,2,-0.283
ITGA1,3,0.45
SMR3B,1,0.561
SMR3B,2,-1.2
SMR3B,3,-0.385
SLC25A32,1,0.434
SLC25A32,2,-0.824
SLC25A32,3,1.58
RBM15,1,-0.77
RBM15,2,-0.439
RBM15,3,-0.781
RBCK1,1,1.88
RBCK1,2,-0.452
RBCK1,3,2.12
NAA30,1,-0.884
NAA30,2,-0.0721
NAA30,3,-1.37
HSD17B6,1,-0.0508
HSD17B6,2,0.791
HSD17B6,3,-2.5
FAM76A,1,1.19
FAM76A,2,-1.7
FAM76A,3,0.34
KIFAP3,1,-0.26
KIFAP3,2,-0.762
KIFAP3,3,-1.11

A portion of the results above, as a working copy:
gene,siRNA no.,"total luciferase, z-score"
ZNF138,1,0.489
ZNF138,2,0.381
ZNF138,3,-1.1
CHRNA9,1,-0.97
CHRNA9,2,0.0232
CHRNA9,3,0.128
FLACC1,1,-0.263
FLACC1,2,-0.248
FLACC1,3,-0.298
